We go through 18 sequences from publication PMC8384837.

Changes are numbered by the printed parent chain. The list shows a part of the results. For part of these data: At the low end of the ranking the order means little. For part of these data: The source does not settle which construct or isoform was used.

Settings in all cases: yeast three-hybrid, YBZ-1, SC-Leu-His + 0.5 mM 3-AT, 4 days
For assay [1], the target named is T1, PUM1 PUF domain R1-QFR R2-VFQ R7-NPG S863Q + R864F + Q867R + N899V + Y900F + S1079N + N1080P + E1083G (UniProt Q14671).
T1 sequence: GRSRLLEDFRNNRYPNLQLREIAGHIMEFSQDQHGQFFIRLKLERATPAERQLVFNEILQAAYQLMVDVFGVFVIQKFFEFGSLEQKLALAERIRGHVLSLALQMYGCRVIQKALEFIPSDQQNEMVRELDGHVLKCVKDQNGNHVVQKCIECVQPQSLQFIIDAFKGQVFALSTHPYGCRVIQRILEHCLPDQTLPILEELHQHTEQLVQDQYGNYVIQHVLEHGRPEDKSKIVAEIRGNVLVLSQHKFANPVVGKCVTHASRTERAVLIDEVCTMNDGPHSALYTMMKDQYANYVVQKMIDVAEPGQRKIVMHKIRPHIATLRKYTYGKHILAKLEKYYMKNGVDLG

The target in assay [2] is T2, PUM1 PUF domain R2-VFQ R3-THE R4-TFR N899V + Y900F + C935T + R936H + Q939E + N971T + H972F + Q975R (UniProt Q14671).
T2 sequence: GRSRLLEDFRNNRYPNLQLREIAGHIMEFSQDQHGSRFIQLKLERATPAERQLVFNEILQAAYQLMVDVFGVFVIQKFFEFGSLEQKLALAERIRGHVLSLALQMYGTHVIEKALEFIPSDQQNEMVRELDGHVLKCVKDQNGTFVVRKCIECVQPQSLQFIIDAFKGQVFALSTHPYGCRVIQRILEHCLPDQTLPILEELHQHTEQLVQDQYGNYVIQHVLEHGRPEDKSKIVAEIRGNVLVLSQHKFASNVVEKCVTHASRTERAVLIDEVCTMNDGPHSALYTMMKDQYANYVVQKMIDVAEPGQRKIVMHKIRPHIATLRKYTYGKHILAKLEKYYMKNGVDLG

The target in assay [3] is T3, PUM1 PUF domain R3-THE R4-TFR C935T + R936H + Q939E + N971T + H972F + Q975R (UniProt Q14671).
T3 sequence: T2 sequence with V72N, F73Y

Assay [4] concerns the target T4, PUM1 PUF domain R5-PHQ R6-SWD C1007P + R1008H + N1043S + Y1044W + Q1047D (UniProt Q14671).
T4 sequence: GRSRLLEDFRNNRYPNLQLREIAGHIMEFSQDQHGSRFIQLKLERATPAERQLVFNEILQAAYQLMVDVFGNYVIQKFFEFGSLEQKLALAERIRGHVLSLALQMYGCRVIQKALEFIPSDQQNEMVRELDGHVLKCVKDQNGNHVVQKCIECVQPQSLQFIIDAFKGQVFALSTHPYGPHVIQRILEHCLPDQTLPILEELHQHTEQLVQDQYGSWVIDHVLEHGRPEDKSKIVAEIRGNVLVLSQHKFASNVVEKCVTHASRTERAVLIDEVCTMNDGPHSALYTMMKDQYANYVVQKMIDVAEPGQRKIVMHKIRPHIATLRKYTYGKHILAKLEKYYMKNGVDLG

Assay [5] addresses T5, PUM1 PUF domain R6-SWD R7-NPG N1043S + Y1044W + Q1047D + S1079N + N1080P + E1083G (Homo sapiens) (UniProt Q14671).
T5 sequence: T4 sequence with P180C, H181R, S252N, N253P, E256G

Assay [6] has as its target T6, PUM1 PUF domain R3-THE R4-TFR R7-NPG C935T + R936H + Q939E + N971T + H972F + Q975R + S1079N + N1080P + E1083G (Homo sapiens) (UniProt Q14671).
T6 sequence: T2 sequence with V72N, F73Y, S252N, N253P, E256G

“GGCUAGAACUAGUGGAUCCCCCGGCGCCCGGCGGCUCGAGCCCGGGUAAGAGGAGGUAGUCUGCAUGCCGCCGGGCGCCAUGCCUGCAGGUCGACUCUAGAAAACAUG”: the binding signal (log2 enrichment (interaction score)) in assay [1] was -5.53; in assay [2] it was -5.25; in assay [3] it was -7.23; in assay [4], -7.55.

Turning to “GGCUAGAACUAGUGGAUCCCCCGGCGCCCGGCGGCUCGAGCCCGGGUAAGUGUAAGACGUCUGCAUGCCGCCGGGCGCCAUGCCUGCAGGUCGACUCUAGAAAACAUG”, the binding signal (log2 enrichment (interaction score)) in assay [1] was -5.22; in assay [2] it was -5.22; in assay [3] it was -7.52; in assay [4], -9.51; in assay [5], -1.53.

In the case of “GGCUAGAACUAGUGGAUCCCCCGGCGCCCGGCGGCUCGAGCCCGGGUAAGACGAGAUAGUCUGCAUGCCGCCGGGCGCCAUGCCUGCAGGUCGACUCUAGAAAACAUG”, the binding signal (log2 enrichment (interaction score)) in assay [1] was -6.26; in assay [2], -4.7; in assay [3], below -6.84; in assay [4] it was below -7.14.

Regarding “GGCUAGAACUAGUGGAUCCCCCGGCGCCCGGCGGCUCGAGCCCGGGUAAGUUUAAGUAGUCUGCAUGCCGCCGGGCGCCAUGCCUGCAGGUCGACUCUAGAAAACAUG”, the binding signal (log2 enrichment (interaction score)) in assay [1] is -5.59; in assay [2], -5.31; in assay [3], -6.64; in assay [4], -8.65; in assay [5], -1.28.

As for “GGCUAGAACUAGUGGAUCCCCCGGCGCCCGGCGGCUCGAGCCCGGGUAAGAUUCCGAAGUCUGCAUGCCGCCGGGCGCCAUGCCUGCAGGUCGACUCUAGAAAACAUG”, the binding signal (log2 enrichment (interaction score)) is -2.59 in assay [1], -4.43 in assay [2], below -7.29 in assay [3] and -1.7 in assay [5].

On to “GGCUAGAACUAGUGGAUCCCCCGGCGCCCGGCGGCUCGAGCCCGGGUAAGUCGAGGUAGUCUGCAUGCCGCCGGGCGCCAUGCCUGCAGGUCGACUCUAGAAAACAUG”, for which the binding signal (log2 enrichment (interaction score)) in assay [1] was -6.9; in assay [2], -5.72; in assay [3], below -6.27; in assay [5], -1.15.

For the sequence “GGCUAGAACUAGUGGAUCCCCCGGCGCCCGGCGGCUCGAGCCCGGGUAAGUAUAAAUAGUCUGCAUGCCGCCGGGCGCCAUGCCUGCAGGUCGACUCUAGAAAACAUG”, the binding signal (log2 enrichment (interaction score)) in assay [1] was -4.28; in assay [2], -4.78; in assay [3], -5.87; in assay [4] it was -7.6; in assay [5], -0.74.

Consider “GGCUAGAACUAGUGGAUCCCCCGGCGCCCGGCGGCUCGAGCCCGGGUAAGUGGAACUAGUCUGCAUGCCGCCGGGCGCCAUGCCUGCAGGUCGACUCUAGAAAACAUG”, for which the binding signal (log2 enrichment (interaction score)) was -6.15 in assay [1]; -5.24 in assay [2]; -6.29 in assay [3]; -7.48 in assay [4]; -1.16 in assay [5].

For “GGCUAGAACUAGUGGAUCCCCCGGCGCCCGGCGGCUCGAGCCCGGGUAAGGGGAAAUCGUCUGCAUGCCGCCGGGCGCCAUGCCUGCAGGUCGACUCUAGAAAACAUG”, the binding signal (log2 enrichment (interaction score)) is -6.5 in assay [1], -3.59 in assay [2], -7.55 in assay [3] and -8.44 in assay [4].

On to “GGCUAGAACUAGUGGAUCCCCCGGCGCCCGGCGGCUCGAGCCCGGGUAAGGUUCAAAAGUCUGCAUGCCGCCGGGCGCCAUGCCUGCAGGUCGACUCUAGAAAACAUG”, for which the binding signal (log2 enrichment (interaction score)) in assay [1] was -3.51; in assay [2], -3.66; in assay [6], -1.4.

With “GGCUAGAACUAGUGGAUCCCCCGGCGCCCGGCGGCUCGAGCCCGGGUAAGUGGAAGUCGUCUGCAUGCCGCCGGGCGCCAUGCCUGCAGGUCGACUCUAGAAAACAUG”, the binding signal (log2 enrichment (interaction score)) in assay [1] was -6.08; in assay [2], -5.41; in assay [3] it was -5.99; in assay [4] it was below -7.47; in assay [5], -0.71.

Regarding “GGCUAGAACUAGUGGAUCCCCCGGCGCCCGGCGGCUCGAGCCCGGGUAAGUAUCUAUAGUCUGCAUGCCGCCGGGCGCCAUGCCUGCAGGUCGACUCUAGAAAACAUG”, the binding signal (log2 enrichment (interaction score)) is below -6.06 in assay [1]; -5.12 in assay [2]; -7.26 in assay [3]; below -8.22 in assay [4]; -0.44 in assay [5].

For “GGCUAGAACUAGUGGAUCCCCCGGCGCCCGGCGGCUCGAGCCCGGGUAAGUUGACAUAGUCUGCAUGCCGCCGGGCGCCAUGCCUGCAGGUCGACUCUAGAAAACAUG”, the binding signal (log2 enrichment (interaction score)) in assay [1] was -5.79; in assay [2] it was -5.34; in assay [3] it was -7.31; in assay [4] it was -8.14; in assay [5], -1.13.

With “GGCUAGAACUAGUGGAUCCCCCGGCGCCCGGCGGCUCGAGCCCGGGUAAGUUGAUGGAGUCUGCAUGCCGCCGGGCGCCAUGCCUGCAGGUCGACUCUAGAAAACAUG”, the binding signal (log2 enrichment (interaction score)) is -6.18 in assay [1], -5.81 in assay [2], -7.3 in assay [3] and -8.43 in assay [4].

On to “GGCUAGAACUAGUGGAUCCCCCGGCGCCCGGCGGCUCGAGCCCGGGUAAGUUUACGUAGUCUGCAUGCCGCCGGGCGCCAUGCCUGCAGGUCGACUCUAGAAAACAUG”, for which the binding signal (log2 enrichment (interaction score)) was -5.73 in assay [1]; -4.15 in assay [2]; -4.4 in assay [3]; -8.4 in assay [4]; -0.76 in assay [5].

“GGCUAGAACUAGUGGAUCCCCCGGCGCCCGGCGGCUCGAGCCCGGGUAAGCUUAAAUAGUCUGCAUGCCGCCGGGCGCCAUGCCUGCAGGUCGACUCUAGAAAACAUG”: the binding signal (log2 enrichment (interaction score)) was -5.85 in assay [1]; -5.34 in assay [2]; -6.94 in assay [3]; below -8.32 in assay [4]; -1.1 in assay [5].

For “GGCUAGAACUAGUGGAUCCCCCGGCGCCCGGCGGCUCGAGCCCGGGUAAGUUUACAUAGUCUGCAUGCCGCCGGGCGCCAUGCCUGCAGGUCGACUCUAGAAAACAUG”, the binding signal (log2 enrichment (interaction score)) in assay [1] is below -6.42; in assay [2], -5.65; in assay [3], -7.38; in assay [4] it was below -7.31; in assay [5], -1.5.

Regarding “GGCUAGAACUAGUGGAUCCCCCGGCGCCCGGCGGCUCGAGCCCGGGUAAGUGCGCACAGUCUGCAUGCCGCCGGGCGCCAUGCCUGCAGGUCGACUCUAGAAAACAUG”, the binding signal (log2 enrichment (interaction score)) in assay [1] is -6.13; in assay [2], -5.72; in assay [3], -6.89; in assay [4], below -8.48.
